Data on 1 substance can be found in article PMC8983040.

The chains behind the UniProt entries cited, without tags or fusion partners.
UniProt Q4AC94: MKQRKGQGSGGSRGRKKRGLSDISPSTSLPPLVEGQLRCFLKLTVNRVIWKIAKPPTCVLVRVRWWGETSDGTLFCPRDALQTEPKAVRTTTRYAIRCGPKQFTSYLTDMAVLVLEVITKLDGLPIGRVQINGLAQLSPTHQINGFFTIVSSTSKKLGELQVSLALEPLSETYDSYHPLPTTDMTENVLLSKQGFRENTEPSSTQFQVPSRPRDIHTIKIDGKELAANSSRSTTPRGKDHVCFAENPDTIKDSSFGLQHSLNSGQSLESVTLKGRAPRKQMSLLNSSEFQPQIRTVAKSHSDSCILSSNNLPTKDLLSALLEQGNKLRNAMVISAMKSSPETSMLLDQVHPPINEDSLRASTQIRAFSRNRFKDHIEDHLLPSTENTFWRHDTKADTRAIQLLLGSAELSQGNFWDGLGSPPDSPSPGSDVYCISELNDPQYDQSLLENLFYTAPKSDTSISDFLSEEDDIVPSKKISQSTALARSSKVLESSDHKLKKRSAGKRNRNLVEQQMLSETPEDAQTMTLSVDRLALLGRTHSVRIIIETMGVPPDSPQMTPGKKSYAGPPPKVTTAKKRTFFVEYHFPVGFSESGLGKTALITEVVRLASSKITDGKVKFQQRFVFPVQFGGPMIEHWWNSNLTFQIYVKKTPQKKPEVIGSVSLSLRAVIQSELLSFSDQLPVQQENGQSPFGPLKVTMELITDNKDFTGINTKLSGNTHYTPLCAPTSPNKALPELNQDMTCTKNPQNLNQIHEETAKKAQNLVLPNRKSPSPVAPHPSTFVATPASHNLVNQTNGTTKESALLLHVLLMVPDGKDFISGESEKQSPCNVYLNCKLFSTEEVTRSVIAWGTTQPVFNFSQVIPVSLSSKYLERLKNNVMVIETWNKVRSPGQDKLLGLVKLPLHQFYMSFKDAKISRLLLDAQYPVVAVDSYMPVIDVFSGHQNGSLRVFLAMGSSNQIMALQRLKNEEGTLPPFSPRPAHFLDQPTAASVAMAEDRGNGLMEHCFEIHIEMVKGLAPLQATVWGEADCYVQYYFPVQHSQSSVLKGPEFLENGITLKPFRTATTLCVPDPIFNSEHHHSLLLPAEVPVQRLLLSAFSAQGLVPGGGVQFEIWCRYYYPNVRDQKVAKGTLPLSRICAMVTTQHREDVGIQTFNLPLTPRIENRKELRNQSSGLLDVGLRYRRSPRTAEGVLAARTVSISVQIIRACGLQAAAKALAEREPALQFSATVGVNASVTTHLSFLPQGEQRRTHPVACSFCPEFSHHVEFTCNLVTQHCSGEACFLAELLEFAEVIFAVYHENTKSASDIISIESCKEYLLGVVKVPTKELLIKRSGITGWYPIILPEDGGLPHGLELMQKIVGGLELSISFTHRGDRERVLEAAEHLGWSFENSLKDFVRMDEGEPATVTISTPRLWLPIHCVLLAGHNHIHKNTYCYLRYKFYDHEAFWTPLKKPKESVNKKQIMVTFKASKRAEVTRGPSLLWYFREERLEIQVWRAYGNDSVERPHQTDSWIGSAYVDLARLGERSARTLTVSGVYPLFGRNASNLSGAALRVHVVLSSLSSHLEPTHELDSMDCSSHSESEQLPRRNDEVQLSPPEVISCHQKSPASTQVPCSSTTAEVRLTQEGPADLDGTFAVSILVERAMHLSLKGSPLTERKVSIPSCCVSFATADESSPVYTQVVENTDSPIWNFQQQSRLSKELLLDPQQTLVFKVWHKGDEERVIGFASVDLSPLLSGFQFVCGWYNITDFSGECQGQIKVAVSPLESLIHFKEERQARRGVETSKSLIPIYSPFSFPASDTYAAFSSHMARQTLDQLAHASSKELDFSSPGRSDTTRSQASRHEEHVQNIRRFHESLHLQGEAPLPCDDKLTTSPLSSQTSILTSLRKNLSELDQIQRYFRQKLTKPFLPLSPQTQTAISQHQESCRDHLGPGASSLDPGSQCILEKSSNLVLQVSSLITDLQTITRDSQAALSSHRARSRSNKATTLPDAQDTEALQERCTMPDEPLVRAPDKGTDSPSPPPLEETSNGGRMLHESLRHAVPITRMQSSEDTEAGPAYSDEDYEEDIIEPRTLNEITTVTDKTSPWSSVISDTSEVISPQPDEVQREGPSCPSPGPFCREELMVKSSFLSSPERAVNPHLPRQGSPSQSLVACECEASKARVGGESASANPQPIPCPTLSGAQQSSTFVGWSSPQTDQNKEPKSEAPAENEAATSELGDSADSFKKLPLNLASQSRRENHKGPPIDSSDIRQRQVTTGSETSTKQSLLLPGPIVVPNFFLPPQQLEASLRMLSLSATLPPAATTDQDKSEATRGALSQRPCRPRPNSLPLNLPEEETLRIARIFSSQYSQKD

This test concerns the target T1, LRRCC1 with GFP inserted after aa 402 (human) (UniProt Q9C099).
T1 sequence: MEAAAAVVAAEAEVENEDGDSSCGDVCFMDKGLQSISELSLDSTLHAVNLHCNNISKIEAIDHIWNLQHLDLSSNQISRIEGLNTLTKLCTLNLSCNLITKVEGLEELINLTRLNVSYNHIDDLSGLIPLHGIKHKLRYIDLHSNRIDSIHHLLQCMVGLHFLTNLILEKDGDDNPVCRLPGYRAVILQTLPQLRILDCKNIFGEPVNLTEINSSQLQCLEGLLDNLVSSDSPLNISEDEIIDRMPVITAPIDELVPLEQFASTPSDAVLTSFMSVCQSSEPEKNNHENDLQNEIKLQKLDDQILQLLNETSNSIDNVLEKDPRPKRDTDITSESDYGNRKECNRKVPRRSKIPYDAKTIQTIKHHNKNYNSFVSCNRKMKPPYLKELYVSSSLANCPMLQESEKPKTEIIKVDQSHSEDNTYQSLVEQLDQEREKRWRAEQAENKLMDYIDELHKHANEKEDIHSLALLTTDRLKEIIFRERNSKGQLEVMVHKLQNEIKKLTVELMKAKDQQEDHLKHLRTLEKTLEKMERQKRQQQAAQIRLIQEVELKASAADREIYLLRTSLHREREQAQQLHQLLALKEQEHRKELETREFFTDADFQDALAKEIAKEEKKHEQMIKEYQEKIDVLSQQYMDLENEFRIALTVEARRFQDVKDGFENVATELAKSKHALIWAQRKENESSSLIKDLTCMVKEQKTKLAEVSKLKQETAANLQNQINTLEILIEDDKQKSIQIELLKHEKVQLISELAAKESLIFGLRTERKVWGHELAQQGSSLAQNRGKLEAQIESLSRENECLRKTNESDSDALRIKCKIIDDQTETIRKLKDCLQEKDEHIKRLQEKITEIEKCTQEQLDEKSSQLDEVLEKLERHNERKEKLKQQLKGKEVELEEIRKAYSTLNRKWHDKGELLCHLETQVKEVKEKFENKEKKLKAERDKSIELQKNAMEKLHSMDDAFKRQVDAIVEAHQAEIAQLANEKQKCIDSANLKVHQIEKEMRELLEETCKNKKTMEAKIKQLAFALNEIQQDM
The test is described as follows: co-IP; lysate of doxycycline-induced HEK 293 (Flp-In-293) cells expressing LRRCC1 with GFP after aa 402; lysis buffer 50 mM Tris pH 8, 150 mM NaCl, 1% NP-40, 0.5% sodium deoxycholate, 0.1% SDS; anti-GFP (control: anti-HA) on Dynabeads, 3 hr at 4°C; Western blot with anti-GFP or anti-C2CD3.

These are yes or no findings as the source states them, for the method shown. Binding seen in cells or lysates may run through a third protein. Where a sequence is shown, tags or fusion partners need not be part of it.

For the substance “C2CD3 (C2 domain containing 3) (from UniProt Q4AC94 1-2353)”, the binding result is listed as “no binding”.
